Experimental data as given in article PMC10114070.
Results are given in words; binding and its absence hold for the method and conditions named. For part of these data: In cells and extracts the contact can be indirect. Some entries that bind do so weakly or less than the wild type. Each block holds one substance with its values, some of them ahead of it.

Chains of the proteins cited; added tags and fusions are not shown.
UniProt P31749: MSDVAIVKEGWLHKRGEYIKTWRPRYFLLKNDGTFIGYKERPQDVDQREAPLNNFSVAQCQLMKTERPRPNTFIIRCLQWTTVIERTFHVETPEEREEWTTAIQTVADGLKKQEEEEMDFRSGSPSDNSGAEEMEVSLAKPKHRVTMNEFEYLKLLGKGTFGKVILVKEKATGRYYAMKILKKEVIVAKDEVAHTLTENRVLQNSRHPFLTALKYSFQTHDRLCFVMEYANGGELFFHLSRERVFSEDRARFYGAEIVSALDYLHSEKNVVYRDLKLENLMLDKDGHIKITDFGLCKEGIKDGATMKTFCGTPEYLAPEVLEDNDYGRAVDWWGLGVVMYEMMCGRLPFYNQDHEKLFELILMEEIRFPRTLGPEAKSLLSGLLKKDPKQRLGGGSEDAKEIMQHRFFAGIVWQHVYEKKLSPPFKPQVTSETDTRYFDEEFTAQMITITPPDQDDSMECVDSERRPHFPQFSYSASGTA
UniProt O93507: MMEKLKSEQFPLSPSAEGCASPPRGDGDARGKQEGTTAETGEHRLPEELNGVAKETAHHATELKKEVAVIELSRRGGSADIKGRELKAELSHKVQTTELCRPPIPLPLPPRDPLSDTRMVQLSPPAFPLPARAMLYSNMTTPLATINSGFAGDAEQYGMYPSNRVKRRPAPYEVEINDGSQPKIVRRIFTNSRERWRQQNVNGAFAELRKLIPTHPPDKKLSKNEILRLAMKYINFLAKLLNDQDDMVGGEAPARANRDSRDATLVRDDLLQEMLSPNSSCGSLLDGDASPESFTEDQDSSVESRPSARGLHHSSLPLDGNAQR

What was measured:
[1] = target: Flag-AKT1 expressed in zebrafish embryos from injected mRNA (UniProt P31749); assay: co-IP; wild-type zebrafish embryos injected with 200 pg Flag-AKT1 mRNA at the one-cell stage; immunoprecipitation with anti-Flag antibody; endogenous zEtv2 and zScl detected
GST-AKT1 = GST-AKT1 (UniProt P31749); assay: pull-down; GST-AKT1 immobilised on Glutathione-Sepharose 4B beads, incubated with purified zEtv2-(236-345) or zScl (GST cleaved by thrombin) at 4°C for 3 h; SDS-PAGE, Coomassie Blue staining; both purified
Flag-tagged AKT1 = Flag-tagged AKT1 (UniProt P31749); assay: co-IP; HEK293T cells transfected with the indicated plasmids; lysates (TNE or RIPA buffer) incubated with anti-Flag-agarose beads at 4°C for 4 h; western blot

binding [1]: binds
Substance: endogenous zebrafish Scl (zScl) (from UniProt O93507 1-324)

binding (GST-AKT1): binds
Substance: zScl purified from E. coli (GST tag cleaved) (from UniProt O93507 1-324)

binding (Flag-tagged AKT1): binds
Substance: zebrafish Scl (zScl), overexpressed in HEK293T cells (from UniProt O93507 1-324)
